Source: patent US20110251128A1, “THYMOSIN Beta4 PEPTIDES PROMOTE TISSUE REGENERATION” (The Board of Regents of the University of Texas System, priority 2010, published 2011)
Entries after “also recorded” stand apart in the source; their conditions may differ. Part of at least one peptide drawing is inferred or uncertain, most often the ends. Residues, ends and D or L forms follow the SMILES beside them. No end group written: not given here.

Tests used:
Format in all cases: in vivo, mouse
Akt = assay: Western blot anti-phosphoS473-Akt on heart lysates after coronary ligation; conditions: 24 hours after treatment
Source text: (§1) Animals and Surgical procedures. Mice: Myocardial infarctions were produced in seventy C57BL/6J male mice at 16 weeks of age (25-30 g) by ligation of the left anterior descending (LAD) coronary artery as described (Garner et al., 2003). All animal protocols were reviewed and approved by the University of Texas Southwestern Medical School Institutional Animal Care Advisory Committee and were in compliance with the rules governing animal use as published by the NIH. Mice were sedated in an isoflurane chamber (5%) for 60 seconds until self-designed coaxial mask could be safely applied. The mask supplied continuous isoflurane (2.0%) and oxygen (98.0%) under positive pressure from a Harvard small animal respirator throughout the procedures. […] Effective doses of the peptides were calculated based on optimal in vitro cell migration effect and on biodistribution calculations of full length TB4 (Mora et al., 1997). […]
(§2) Western blot. […] The protein fraction was isolated from the interphase of the Trizol purification as recommended by the manufacturer; 10 μg of the total protein was loaded and analyzed by Western blot with protein-specific primary antibodies: VEGF, p-Marcks, p-Akt, and GAPDH (1:100) (Santa Cruz), Connexin43 (1:50) (Invitrogen), N-Cadherin (1:5000) (BD Biosciences) and pS368-Connexin43 (1:1000) (Cell Signaling Technology).

[1] = tested on: C57BL/6J male mice after coronary ligation; assay: Myocardial infarction by LAD coronary ligation in adult mice: echocardiography, scar volume, myocyte size; conditions: for myocyte diameter / size in the ischemic area / scar (Masson's trichrome staining): 21 days after ligation, compared to PBS; for post-ischemic cardiac function, in words: adult mice after coronary ligation; for end systolic diameter (ESD): after three weeks; for calculated ejection fraction (EF) / mean fractional shortening (FS): three weeks after ligation, intracardiac once plus intraperitoneal every three days
Source text: Animals and Surgical procedures. Mice: Myocardial infarctions were produced in seventy C57BL/6J male mice at 16 weeks of age (25-30 g) by ligation of the left anterior descending (LAD) coronary artery as described (Garner et al., 2003). All animal protocols were reviewed and approved by the University of Texas Southwestern Medical School Institutional Animal Care Advisory Committee and were in compliance with the rules governing animal use as published by the NIH. Mice were sedated in an isoflurane chamber (5%) for 60 seconds until self-designed coaxial mask could be safely applied. The mask supplied continuous isoflurane (2.0%) and oxygen (98.0%) under positive pressure from a Harvard small animal respirator throughout the procedures. Immediately after ligation mice were injected with 200 ng of peptide in […] or […] PBS in collagen intracardially in the infarction border, and with […] PBS intraperitoneally as described (Bock-Marquette et al., 2004). Intraperitoneal injections were repeated every three days after ligation. Effective doses of the peptides were calculated based on optimal in vitro cell migration effect and on biodistribution calculations of full length TB4 (Mora et al., 1997). The inventors administered buprenorphine (0.05 mg/kg) for post-operative pain control. Hearts were removed 1, 14 and 21 days after ligation and processed for further investigations.
Analysis of cardiac function by echocardiography: Echocardiograms to assess systolic function were performed using M-mode and 2-dimensional measurements as described previously (Garner et al., 2003). The measurements represented the average of six selected cardiac cycles from at least two separate scans performed in random-blind fashion with papillary muscles used as a point of reference for consistency in level of scan. End diastole was defined as the maximal left ventricle (LV) diastolic dimension and end systole was defined as the peak of posterior wall motion. Single outliers in each group were omitted for statistical analysis. Fractional shortening (FS), a surrogate of systolic function, was calculated from LV dimensions as follows: FS=[(EDD−ESD)/EDD]×100%. Ejection fraction (EF) was calculated as follows: EF=[(edd^3−esd^3)/edd^3]×100%. EDD, end diastolic dimension; ESD, end systolic dimension.
Calculation of scar volume and myocyte size: Scar volume was calculated after Masson's trichrome staining in six sections through the heart of each mouse using Openlab 3.03 software (Improvision) similar to previously described (Bock-Marquette et al., 2004). Percent area of collagen deposition was measured on each section in blinded fashion and averaged for each mouse.

Protein Kinase C = assay: Western blot of phospho-Marcks (indirect PKC activity) in cardiac tissue; conditions: twenty-one days after injection, compared to PBS
pS368-Cx43 = assay: Western blot of pS368-Connexin43 in infarcted hearts; conditions: ischemic border, 21 days, compared to PBS
Source text: as §1, §2

[2] = tested on: Wt-1 positive cardiac progenitors; assay: Immunohistochemistry, Wt-1 positive progenitor cells at infarction border; conditions: border of the infarction, 21 days / three weeks after peptide injections
Source text: as §1
(§3) Immunohistochemistry. Adult mouse cardiac tissue was fixed in 4% paraformaldehyde and sections were analyzed by immunohistochemistry. […] Number of sm a-actin positive capillaries and Wt-1 positive cells were counted at the infarction border zone in high power photographs at all levels of the sections in three peptide, TB4 and PBS treated hearts respectively.

cardiomyocytes = assay: TUNEL assay on hearts after coronary ligation; conditions: 24 h after ligation
Source text: as §1, §3

Compound | Akt activation (phosphoS473-Akt) (Akt) | myocyte diameter / size in the ischemic area [1] | scar (Masson's trichrome staining) [1] | post-ischemic cardiac function, in words [1] | end systolic diameter (ESD) [1] | calculated ejection fraction (EF) [1] | mean fractional shortening (FS) [1] | Protein Kinase C activation (p-Marcks) (Protein Kinase C) | pS368-Cx43 (Cx43 phosphorylation) (pS368-Cx43) | number of Wt-1 positive cells [2] | number of Wt-1 positive cells ([2]; listed as AGES) | post-ischemic cardiac function, in words ([1]; listed as AGES) | TUNEL positive cardiomyocytes (myocardial cell death) (cardiomyocytes)
LKKTETQEKNPLPSKETIEQEKQAGES [#14] | increase in Akt activation; also recorded: increased Akt activation | increased myocyte diameter; also recorded: significantly increase the size of surviving cardiomyocytes | significant reduction of the scar; also recorded: alters scar formation | improves myocardial function | significantly decreased | 86.3+/−1.8% | 49.2+/−2.3% | increase in VEGF expression and Protein Kinase C activation | higher |  |  |  | 
C[C@H](N)C(=O)NCC(=O)N[C@@H](CCC(=O)O)C(=O)N[C@@H](CO)C(=O)O [#17, AGES] (H-AGES-OH) | increase in Akt activation; also recorded: increased Akt activation | increased myocyte diameter; also recorded: significantly increase the size of surviving cardiomyocytes | significant reduction of the scar; also recorded: alters scar formation | improves myocardial function | significantly decreased | 86.8+/−2.2% | 49.1+/−3.2% | increase in VEGF expression and Protein Kinase C activation | significantly lower; also recorded: decrease in Cx43 phosphorylation | significant increase | increased significantly | significantly increases function | significantly decreased TUNEL positivity; also recorded: significant decrease of myocardial cell death
